Data on 39 sequences can be found in the supplement of paper PMC10338343.

± gives the standard deviation. Only a part is listed here, and it is no random draw. Many of these values have a large error.

This assay relates to MIWI (PIWIL1) piRISC loaded with L1MC piRNA (30 nt). Briefly: pre-steady-state target cleavage rate (min^-1); MIWI and MILI are mouse PIWI proteins and EfPiwi is from a freshwater sponge; tags in brackets are library labels; higher = faster piRNA-guided slicing of the target. The note with it: guide: L1MC piRNA 5'p-UAACUAAAUACUAUGCAAGCUGUAGGUCCU; auxiliary factor: none (no GTSF1). The method in brief: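 Cleave-'n-Seq: 1 nM active affinity-purified piRISC with one synthetic guide and 0.1 nM transcribed, DNA-blocked target RNA library were mixed, with or without 500 nM GTSF1 partner protein, in HEPES–potassium acetate buffer at 33 °C for 0–8 or 0–960 min. Uncleaved targets were sequenced and normalised to depth and to weakly complementary targets, three trials were pooled, and k3 was capped at 0.0001 min^-1. The pre-steady-state cleavage rate was fitted […].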
Take UCCACCUACAGCUAGCAUAGUAUUUAGAAA: the “pre-steady-state target cleavage rate” value was 0.00151 ± 0.0043.

In the case of UGGACCUACAGCUUGCAUAGAUAUUAGAAA, the “pre-steady-state target cleavage rate” value was 0.000696 ± 0.0091.

For UGGACCUACAGGAUGCAUAGUAUUUUCAAA, the “pre-steady-state target cleavage rate” value is 0.000897 ± 0.0036.

For UGGACCUACAGCUUGCAUAGUUUUUACAAA, the “pre-steady-state target cleavage rate” value was 0.00206 ± 0.0029.

UCGACCUACAGCUUGCAUUGUAUUUUCAAA: the “pre-steady-state target cleavage rate” value was determined as 0.00139 ± 0.0059.

For the sequence UCCACCUACACGAUGCAUAGUAUUUUCAAA, the “pre-steady-state target cleavage rate” value worked out at 0.000608 ± 0.012.

For the sequence UGGACCUACAGGUUGCAUAGUAUUUUCAAA, the “pre-steady-state target cleavage rate” value is 0.00178 ± 0.0022.

Regarding UCGACCUACAGCUUCGAUAGUAUUUAGUAA, the “pre-steady-state target cleavage rate” value was found to be 0.00154 ± 0.0039.

As for UCCACCUACAGCUUGCAAUCUAUUUAGUAA, the “pre-steady-state target cleavage rate” value stood at 0.00116 ± 0.0045.

For UCCACCUACAGCUUGCAUACGUAUUUAGUUA, the “pre-steady-state target cleavage rate” value worked out at 0.00079 ± 0.0098.

As to AGGACCUACAGCUUGCUAAGUAUUUAGUAA, the “pre-steady-state target cleavage rate” value is 0.00204 ± 0.0038.

In the case of UGGACCUACAGCUUCGAUAGUAUUUAGAAA, the “pre-steady-state target cleavage rate” value came to 0.00112 ± 0.0039.

In the case of UCCACCUACAGCUUGCAUUCAAUUUAGAAA, the “pre-steady-state target cleavage rate” value was found to be 0.000286 ± 0.01.

Consider UGGACCUACAGCUUGCAUAGUAUAUAGAAA, for which the “pre-steady-state target cleavage rate” value is 0.0022 ± 0.0036.

As for AGGACCUACACGUUGCAUAGUAUUUACAAA, the “pre-steady-state target cleavage rate” value was determined as 0.00234 ± 0.0033.

Take AGGACCUACAGCUUGCAUAGUAUAAUGAAA: the “pre-steady-state target cleavage rate” value worked out at 0.00256 ± 0.0041.

For the sequence UCCUCCUACAGCUUCCAUAGUAUUUACUUA, the “pre-steady-state target cleavage rate” value amounted to 0.00107 ± 0.0062.

Take UGGACCUACAGCUUGCAAUCUAUUUAGAAA: the “pre-steady-state target cleavage rate” value stood at 0.000796 ± 0.0072.

Turning to UGGACCUACAGCUUGCAUACAAUUUAGUAA, the “pre-steady-state target cleavage rate” value was found to be 0.00172 ± 0.0024.

For UCGACCUACAGCUUGCAUCAGUAUUUAGUUA, the “pre-steady-state target cleavage rate” value stood at 0.00102 ± 0.0067.

For UCGACCUACAGCUUGCAUUCUAUUUACAAA, the “pre-steady-state target cleavage rate” value was found to be 0.000742 ± 0.0097.

UGGACCUACAGCUUCGUUAGUAUUUAGUAA: the “pre-steady-state target cleavage rate” value was 0.001 ± 0.0043.

Turning to UCGACCUACAGCUUCCAUACUAUUUAGUUA, the “pre-steady-state target cleavage rate” value is 0.00084 ± 0.0055.

For UCGACCUACAGCUUGCAUACAUUUUACAAA, the “pre-steady-state target cleavage rate” value is 0.000405 ± 0.013.

UCGACCUACAGCUUGCAUAGAUUUAGUUA: the “pre-steady-state target cleavage rate” value is 0.00127 ± 0.0054.

In the case of AGGACCUACAGCUUGCGAUAGUAUUUAGUUA, the “pre-steady-state target cleavage rate” value stood at 0.00113 ± 0.008.

Turning to UCGACCUACAGGAAGCAUAGUAUUUUCAAA, the “pre-steady-state target cleavage rate” value stood at 0.000631 ± 0.0087.

Regarding UCCACCUACAGCUUGCAUAGUAUAUAGAUA, the “pre-steady-state target cleavage rate” value was found to be 0.00274 ± 0.0036.

On to AGGACCUACAGCUUGCAUAGUAAUUACAAA, for which the “pre-steady-state target cleavage rate” value amounted to 0.00148 ± 0.006.

Turning to UCCUGGAUCAGCUUGCUUAGUAUUUACAAA, the “pre-steady-state target cleavage rate” value was determined as 0.00145 ± 0.0051.

In the case of UGGACCUACAGCUUGCAUAGUAAAUAGUAA, the “pre-steady-state target cleavage rate” value amounted to 0.00271 ± 0.0031.

Take UCCACCUACAGCUUGCAUACAUUUUUCAAA: the “pre-steady-state target cleavage rate” value came to 0.000209 ± 0.013.

In the case of UCCACCUACAGCUUGCAAUCUAUUUAGUUA, the “pre-steady-state target cleavage rate” value came to 0.00205 ± 0.0026.

Take UGGACCUACAGCUUGCAUAGUAUUAACAAA: the “pre-steady-state target cleavage rate” value came out at 0.00236 ± 0.0032.

Take UCCACCUACAGCUUGCUAUGUAUUUAGUAA: the “pre-steady-state target cleavage rate” value amounted to 0.00143 ± 0.0045.

Regarding UCCACCUACAGCUUGCAUAGAUAUUAGUAA, the “pre-steady-state target cleavage rate” value stood at 0.00071 ± 0.0078.

As to AGCUGCUACAGCUUGCAUAGUAUUUACAAA, the “pre-steady-state target cleavage rate” value worked out at 0.00178 ± 0.0034.

Take UGGACCUACAGCUUGCAUUGUAUUUUCAAA: the “pre-steady-state target cleavage rate” value came out at 0.00225 ± 0.003.

As for UCGACCUACAGCUACGAUAGUAUUUACAAA, the “pre-steady-state target cleavage rate” value worked out at 0.000531 ± 0.0074.
